Measurements from article PMC3422239.
These are yes or no findings as the source states them, for the method shown. Binding calls can cover weak binding; strength is not graded here.

Biological target: T1, endogenous IRS-2 of Fao (rat hepatoma) cells (rat (endogenous in Fao)) (UniProt F1MAL5)
T1 sequence: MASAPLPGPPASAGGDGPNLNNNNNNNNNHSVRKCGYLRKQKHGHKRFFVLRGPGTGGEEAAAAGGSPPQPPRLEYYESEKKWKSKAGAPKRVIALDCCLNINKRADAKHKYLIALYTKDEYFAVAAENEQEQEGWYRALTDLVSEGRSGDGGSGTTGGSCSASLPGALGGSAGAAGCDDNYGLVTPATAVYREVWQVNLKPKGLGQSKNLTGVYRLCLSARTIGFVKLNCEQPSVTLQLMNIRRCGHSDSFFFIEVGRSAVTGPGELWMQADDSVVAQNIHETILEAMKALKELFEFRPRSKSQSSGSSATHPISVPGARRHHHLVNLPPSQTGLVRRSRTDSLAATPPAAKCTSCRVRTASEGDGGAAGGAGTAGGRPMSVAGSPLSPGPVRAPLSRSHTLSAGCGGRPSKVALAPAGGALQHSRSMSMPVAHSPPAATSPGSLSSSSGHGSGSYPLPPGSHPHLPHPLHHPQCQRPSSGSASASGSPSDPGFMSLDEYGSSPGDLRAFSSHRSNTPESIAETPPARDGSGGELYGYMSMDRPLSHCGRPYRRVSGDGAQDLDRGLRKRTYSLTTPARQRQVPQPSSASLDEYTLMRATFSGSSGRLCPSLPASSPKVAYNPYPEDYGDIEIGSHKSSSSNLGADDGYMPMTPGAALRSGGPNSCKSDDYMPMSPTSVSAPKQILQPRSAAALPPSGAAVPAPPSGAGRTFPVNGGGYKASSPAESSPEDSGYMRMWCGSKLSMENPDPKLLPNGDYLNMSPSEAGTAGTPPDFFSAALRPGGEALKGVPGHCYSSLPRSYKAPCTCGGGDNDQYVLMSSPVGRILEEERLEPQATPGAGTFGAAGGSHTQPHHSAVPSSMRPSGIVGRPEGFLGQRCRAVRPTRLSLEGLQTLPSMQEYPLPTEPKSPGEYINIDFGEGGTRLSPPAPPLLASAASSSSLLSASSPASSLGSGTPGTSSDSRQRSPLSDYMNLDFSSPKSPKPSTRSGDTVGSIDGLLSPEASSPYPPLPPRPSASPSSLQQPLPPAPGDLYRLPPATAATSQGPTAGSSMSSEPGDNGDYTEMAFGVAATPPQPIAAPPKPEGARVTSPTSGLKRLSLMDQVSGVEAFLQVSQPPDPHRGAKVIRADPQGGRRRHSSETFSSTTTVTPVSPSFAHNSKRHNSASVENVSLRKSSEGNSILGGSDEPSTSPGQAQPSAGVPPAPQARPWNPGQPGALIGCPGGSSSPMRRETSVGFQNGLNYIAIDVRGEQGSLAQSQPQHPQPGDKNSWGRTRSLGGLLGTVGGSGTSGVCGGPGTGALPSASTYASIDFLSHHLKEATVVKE
Test: far-Western, overlay or dot blot; IRS-2 immunoprecipitated with IRS-2 antibody from 250 µg Fao cell protein, 5-15% gel, nitrocellulose; overlay with 14-3-3ζ-HRP; cells serum starved, 10 nM insulin or 50 ng/ml IGF-1 for 30 min; both purified

binding: binds
Substance: Recombinant human 14-3-3ζ-HRP
